Three molecules from publication PMC4859805, “Molecular mechanism of activation-triggered subunit exchange in Ca^2+/calmodulin-dependent protein kinase II” (eLife, 2016) can be followed below.

No constants are given. Whether binding was seen depends on the method and setting. Some binding calls cover weakened binding; strength is not graded here.

Assay [1] addresses human CaMKII-α hub domain (human) (UniProt Q9UQM7). Briefly: fluorescence polarisation; competition: 2 nM BODIPY labelled peptide bound to 30 μM hub, unlabeled peptide 0-500 μM added; KD from a non-linear fit assuming one peptide site per subunit and equal KD of labelled and unlabeled peptide; both purified.
Assay [2] deals with T1, human CaMKII-α hub domain (human), Q9UQM7.
T1 chain: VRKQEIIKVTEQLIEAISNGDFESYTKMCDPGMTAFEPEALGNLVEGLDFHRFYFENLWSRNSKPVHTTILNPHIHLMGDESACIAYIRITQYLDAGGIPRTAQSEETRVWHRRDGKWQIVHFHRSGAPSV
The assay is described as above. The conditions noted are these: remark: other sources report otherwise.

In the case of LKKFNARRKLEGAILTTMLA [Peptide F (human CaMKII-α 290-309, … variant)], the binding entry in assay [1] was “binds weakly”. On to LKEFNAERKLEGAILTTMLA [Peptide G (human CaMKII-α 290-309, … variant)], for which the binding result in assay [2] was “no binding (tested: 500 μM)”.

In the case of LKKFNAERKLKGAILTTMLA [Peptide E (human CaMKII-α 290-309, … variant)], in assay [1], the binding result is “binds weakly”.
